Test results reported in patent publication US20210147525A1 (University of California, published 2021).
These are yes or no findings as the source states them, for the method shown. A result given as binding can be weak or reduced; the word gives no strength.

B1: 4-B2 (antibody, V domains shown)
VH: QVQLVESGGGVVQPGRSLRLSCAASGFTFSRYAMHWVRQAPGKGLEWVAVISHSGSTKYYANSVKGRFTISRDNSKNTLYLQMNSLRAEDTAVYYCARSRGWRGFDSWGQGTLVTVSS
VL: QSVLTQPPSVSGAPGQRVTISCTGSSSNIGAYVVHWYQQLPGTAPKLLIYGNTNRPSGVPDRFSGSKSGTSASLAITGLQAEDEADYYCQSYDRTLSSYVFGGGTKLTVL
B2: 3-D6 (antibody, V domains shown)
VH: QVQLVQSGAEVKKPGSSVKVSCKASGGTFTSYGIHWVRQAPGQGLEWMGRIVPILGTTNYAQKFQGRVTITADESTSTAYMELSSLRSEDTAVYYCARDPAVTLDTYVYADHGFDVWGQGTLVTVSS
VL: EIVMTQSPATLSVSPGERATLSCRASQSVYNNLAWYQQKPGQAPRLLIYGASTRATGIPARFSGSGSGTEFTLTISSLQSEDFAVYYCQQYNDWPLTFGQGTKVEIK
B3: 3-E7 (antibody, V domains shown)
VH: EVQLLESGGGLVQPGGSLRLSCAASGFTFSNYAMSWVRQAPGKGLEWVSGISASGGGTYYADSVKGRFTISRDNSKNTLYLQMNSLRAEDTAVYYCARSSRYGDTFDVWGQGTLVTVSS
VL: EIVMTQSPATLSVSPGERATLSCRASLSVGSNLAWYQQKPGQAPRLLIYGASTRATGIPARFSGSGSGTEFTLTISSLQSEDFAVYYCQQYNNLPLTFGQGTKVEIK
B4: 5-E12 (antibody, V domains shown)
VH: EVQLLESGGGLVQPGGSLRLSCAASGFTFSNYAMSWVRQAPGKGLEWVSTISGGGRTTNYADSVKGRFTISRDNSKNTLYLQMNSLRAEDTAVYYCARSTPIPSYYPYIYSYYFDVWGQGTLVTVSS
VL: EIVMTQSPATLSVSPGERATLSCRASQSVSNNLAWYQQKPGQAPRLLIYGASTRATGIPARFSGSGSGTEFTLTISSLQSEDFAVYYCQQYGNYPPTFGQGTKVEIK
B5: 3-G7 (antibody, V domains shown)
VH: QVQLVQSGAEVKKPGSSVKVSCKASGGTFSTEYISWVRQAPGQGLEWMGRIIPVLGITNYAQKFQGRVTITADESTSTAYMELSSLRSEDTAVYYCARHLGPPYLVTYSHGFDVWGQGTLVTVSS
VL: EIVMTQSPATLSVSPGERATLSCRASQSLGTNLAWYQQKPGQAPRLLIYGASTRATGIPARFSGSGSGTEFTLTISSLQSEDFAVYYCQQYYEAPPTFGQGTKVEIK
B6: 8-A7 (antibody, V domains shown)
VH: EVQLLESGGGLVQPGGSLRLSCAASGFTFRNYAMSWVRQAPGKGLEWVSSISGGGINTYYADSVKGRFTISRDNSKNTLYLQMNSLRAEDTAVYYCARVRSYSGPGYFDYWGQGTLVTVSS
VL: EIVMTQSPATLSVSPGDRATLSCRASRSVSSNLAWYQQKPGQAPRLLIYGASTRATGIPARFSGSGSGTEFTLTISSLQSEDFAVYYCQQYYNWPLTFGQGTKVEIK
B7: 3-H4 (antibody, V domains shown)
VH: EVQLLESGGGLVQPGGSLRLSCAASGFTFSNYAMSWVRQAPGKGLEWVSAISGSGGTTYYADSVKGRFTISRDNSKNTLYLQMNSLRAEDTAVYYCARIKKYGSAGYTVGFDSWGQGTLVTVSS
VL: EIVMTQSPATLSVSPGERATLSCRASQSVGSYLAWYQQKPGQAPRLLIYGASTRATGIPARFSGSGSGTEFTLTISSLQSEDFAVYYCQQYYNAPITFGQGTKVEIK
B8: 4-A7 (antibody, V domains shown)
VH: QLQLQESGPGLVKPSETLSLTCTVSGGSISSSSYYWGWIRQPPGKGLEWIGNIYYTGTTYYNPSLKSRVTISVDTSKNQFSLKLSSVTAADTAVYYCARIKVPWYYSSYYFDYWGQGTLVTVSS
VL: QSVLTQPPSVSGAPGQRVTISCTGSSSNIGAGYDVHWYQQLPGTAPKLLIYGNKNRPSGVPDRFSGSKSGTSASLAITGLQAEDEADYYCQSYDTSLSAWVFGGGTKLTVL
B9: 6-G4 (antibody, V domains shown)
VH: EVQLLESGGGLVQPGGSLRLSCAASGFTFSDYAMSWVRQAPGKGLEWVSSISSSGANTYYADSGKGRFTISRDNSKNILYLQMNSLRAEDTAVYYCARSVVTWVTYAFDYWGQGTLVTVSS
VL: QSVLTQPPSVSGAPGQRVTISCTGSSSNIGAGYDVHWYQQLPGTAPKLLIYDNTNRPSGVPDRFSGSKSGTSASLAITGLQAEDEADYYCQSYDSGLSGWVFGGGTKLTVL
B10: 4-B11 (antibody, V domains shown)
VH: QVQLVESGGGVVQPGRSLRLSCAASGFAFSGYGMHWVRQAPGKGLEWVAVISHHGSYKYYANSVKGRFTISRDNSKNTLYLQMNSLRAEDTAVYYCARGGADVGYFYSTFYYYMDVWGQGTLVTVSS
VL: QSVLTQPPSVSGAPGQRVTISCTGSSSNIGAAFDVHWYQQLPGTAPKLLIYDNYNRPSGVPDRFSGSKSGTSASLAITGLQAEDEADYYCQSYDSSLSVWVFGGGTKLTVL
B11: 4-F4 (antibody, V domains shown)
VH: QLQLQESGPGLVKPSETLSLTCTVSGGSISSRGYYWAWIKQPPGKGLEWIGSIYYSGSTYYNPSLKSRVTISVDTSKNQFSLKLSSVTAADTAVYYCARLVSYGAYYVFDYWGQGTLVTVSS
VL: QSVLTQPPSVSGAPGQRVTISCTGSSSNIGAGYDVHWYQQLPGTAPKLLIYGNRNRPSGVPDRFSGSKSGTSASLAITGLQAEDEADYYCQSYDTRLSAWVFGGGTKLTVL
B12: 4-A8 (antibody, V domains shown)
VH: EVQLLESGGGLVQPGGSLRLSCAASGFTFKNYAMSWVRQAPGKGLEWVSAISASGGYTYYADSVKGRFTISRDNSKNTLYLQMNSLRAEDTAVYYCARGRWGAFDYWGQGTLVTVSS
VL: QSVLTQPPSVSGAPGQRVTISCTGSSSNIGSGYDVHWYQQLPGTAPKLLIYGNRNRPSGVPDRFSGSKSGTSASLAITGLQAEDEADYYCQSYDSSLKTWVFGGGTKLTVL
B13: 6-H5 (antibody, V domains shown)
VH: EVQLLESGGGLVQPGGSLRLSCAASGFTFSNYAMSWVRQAPGKGLEWVSAISATGGATYYADSVKGRFTISRDNSKNTLYLQMNSLRAEDTAVYYCARSVRERYTYYMDYWGQGTLVTVSS
VL: QSVLTQPPSVSGAPGQRVTISCTGSSSNIGAGYDVHWYQQLPGTAPKLLIYDNTNRPSGVPDRFSGSKSGTSASLAITGLQAEDEADYYCQSYDVSLGVWVFGGGTKLTVL
B14: 4-B1 (antibody, V domains shown)
VH: EVQLLESGGGLVQPGGSLKLSCAASGFTFSDYAMSWVRQAPGKGLEWVSGISRGGARTYYADSVKGRFTISRDNSKNTLYLQMNSLRAEDTAVYYCARYLFGHYMDWGQGTLVTVSS
VL: QSVLTQPPSVSGAPGQRVTISCTGSSSNIGAGYDVHWYQQLPGTAPKLLIYGNTNRPSGVPDRFSGSKSGTSASLAITGLQAEDEADYYCQSYDGRLGVSVFGGGTKLTVL
B15: 3-E9 (antibody, V domains shown)
VH: EVQLLESGGGLVQPGGSLRLSCAASGFTFRSYAMSWVRQAPGKGLEWVSTIYGTGEDTYYADSVKGRFTISRDNSKNTLYLQMNSLRAEDTAVYYCARDYFWSPRGSIYDYDYFDVWGQGTLVTVSS
VL: DIQMTQSPSSLSASVGDRVTITCRASQSISRYLNWYQQKPGKAPKLLIYSASSLQSGVPSRFSGSGSGTDFTLTISSLQPEDFATYYCQQYFSAPYTFGQGTKVEIK
B16: 3-G6 (antibody, V domains shown)
VH: QVQLVESGGGVVQPGRSLRLSCAASGFTFSDYGMHWVRQAPGKGLEWVAVISYDGSRKYYANSVKGRFTISRDNSKNTLYLQMNSLRAEDTAVYYCARGSYSDGFDVWGQGTLVTVSS
VL: DIQMTQSPSSLSASVGDRVTITCRASQSISRYLNWYQQKTGKAPKLLIYGASSLQSGVPSRFSGSGSGTDFTLTISSLQPEDFATYYCQQSYSTPYTFGQGTKVEIK
B17: 8-A8 (antibody, V domains shown)
VH: EVQLLESGGGLVQPGGSLRLSCAASGFTFSNYAMSWVRQAPGKGLEWVSVIYGSGARTYYADSVKGRFTISRDNSKNTLYLQMNSLRAEDTAVYYCARISPHYDFDVWGQGTLVTVSS
VL: DIQMTQSPSSLSASVGDRVTITCRASQTISKYLNWYQQKPGKAPKLLIYAASSLQSGVPSRFSGSGSGTDFTLTISSLQPEDFATYYCQQSYSYPITFGQGTKVEIK
B18: 3-G5 (antibody, V domains shown)
VH: EVQLLESGGGLVQPGGSLRLSCAASGFTFSSYAMSWVRQAPGKGLEWVSVIYGSGGRTYYADSVKGRFTISRDNSKNTLYLQMNSLRAEDTAVYYCARHDPRYQLDVWGQGTLVTVSS
VL: DIQMTQSPSSLSASVGDRVTITCRASQSIGSYLNWYQQKPGKAPKLLIYTASSLQSGVPSRFSGSGSGTDFTLTISSLQPEDFATYYCQQSYTYPLTFGQGTKVEIK
B19: 3-G8 (antibody, V domains shown)
VH: EVQLLESGGGLVQPGGSLRLSCAASGFTFSNYAMSWVRQAPGKGLEWVSAIYGSGGKTYYADSVKGRFTISRDNSKNTLYLQMNSLRAEDTAVYYCARLKYGFYQFDYWGQGTLVTVSS
VL: DIQMTQSPSSLSASVGDRVTITCRASQSIRNYLNWYEQKPGKAPKLLIYAASSLQSGVPSRFSGSGSGTDFTLTISSLQPEDFATYYCQQSYSYPLTFGQGTKVEIK
B20: 3-G4 (antibody, V domains shown)
VH: EVQLLESGGGLVQPGGSLRLSCAASGFTFSTYAMSWVRQAPGKGLEWVSGISAGGGARTYYADSVKGRFTISRDNSKNTLYLQMNSLRAEDTAVYYCARVHHFGYYSLDVWGQGTLVTVSS
VL: DIQMTQSPSSLSASVGDRVTITCRASQTISNYLNWYQQKPGKAPKLLIYAASSLQSGVPSRFSGSGSGTDFTLTISSLQPEDFATYYCQQSYTYPLTFGQGTKVEIK
B21: 4-G12 (antibody, V domains shown)
VH: EVQLLESGGGLVRPGGSLRLSCAASGFTFSSYAMSWVRQAPGKGLEWVSAISGSGGSTYYADSVKGRFTISRDNSKNTLYLQMNSLRAEDTAVYYCARDKRLTYWGQGTMVTVSS
VL: QSVVTQPPSVSAAPGQKVTISCSGSSSNIGNNYVSWYQQLPGTAPKLLIYDNNKRPSGIPDRFSGSKSGTSATLGITGLQTGDEADYYCGTWDSSLSARVFGGGTKVTVL

target: human PLXDC1 protein, biotinylated (bait of the antibody library screen) (human); experiment: antibody library screen on biotinylated PLXDC1 with activating compound

binding, binds:
B1
B2
B3
B4
B5
B6
B7
B8
B9
B10
B11
B12
B13
B14
B15
B16
B17
B18
B19
B20
B21
